No constants are given. Whether binding was seen depends on the method and setting. Binding seen in cells or lysates may run through a third protein. Some results given as binding are weak or reduced against the parent protein; the word gives no strength.
Molecular target: GST-GRA8 C-terminal domain (aa 243–269), expressed in 293T cells (Toxoplasma gondii) (UniProt S8F761)
Test: pull-down; 293T cells 48 h after co-transfection of mammalian GST fusions (GST-GRA8 constructs with V5-ATP5A1; GST-ATP5A1 constructs with Flag-GRA8); GST pull down, IB with αV5 or αFlag

The chains behind the UniProt entries cited, without tags or fusion partners. Residues count along the entry.
UniProt S8F761, residues 243-269: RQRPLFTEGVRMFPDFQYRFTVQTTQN
UniProt P25705, residues 44-553: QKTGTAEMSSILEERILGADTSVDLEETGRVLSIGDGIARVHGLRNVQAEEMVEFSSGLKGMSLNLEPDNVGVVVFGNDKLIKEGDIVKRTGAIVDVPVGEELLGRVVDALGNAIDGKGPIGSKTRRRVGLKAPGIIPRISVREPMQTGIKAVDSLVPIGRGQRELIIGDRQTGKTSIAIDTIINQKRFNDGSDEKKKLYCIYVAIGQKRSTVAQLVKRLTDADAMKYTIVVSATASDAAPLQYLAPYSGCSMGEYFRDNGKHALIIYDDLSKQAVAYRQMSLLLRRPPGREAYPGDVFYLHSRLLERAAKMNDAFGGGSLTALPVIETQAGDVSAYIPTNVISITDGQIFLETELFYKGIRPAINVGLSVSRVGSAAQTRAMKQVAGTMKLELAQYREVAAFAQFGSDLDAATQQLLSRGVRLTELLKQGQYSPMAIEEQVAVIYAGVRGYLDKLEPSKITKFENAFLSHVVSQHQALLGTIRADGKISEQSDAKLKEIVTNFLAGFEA

## V5-ATP5A1 (full length), expressed in 293T cells (from UniProt P25705 44-553)
  binding: binds weakly

Source: paper PMC5898902
